# Test results as given in patent CN115433280A.
# The chains behind the UniProt entries cited, without tags or fusion partners. Residues count along the entry.
# UniProt P20273, residues 20-847: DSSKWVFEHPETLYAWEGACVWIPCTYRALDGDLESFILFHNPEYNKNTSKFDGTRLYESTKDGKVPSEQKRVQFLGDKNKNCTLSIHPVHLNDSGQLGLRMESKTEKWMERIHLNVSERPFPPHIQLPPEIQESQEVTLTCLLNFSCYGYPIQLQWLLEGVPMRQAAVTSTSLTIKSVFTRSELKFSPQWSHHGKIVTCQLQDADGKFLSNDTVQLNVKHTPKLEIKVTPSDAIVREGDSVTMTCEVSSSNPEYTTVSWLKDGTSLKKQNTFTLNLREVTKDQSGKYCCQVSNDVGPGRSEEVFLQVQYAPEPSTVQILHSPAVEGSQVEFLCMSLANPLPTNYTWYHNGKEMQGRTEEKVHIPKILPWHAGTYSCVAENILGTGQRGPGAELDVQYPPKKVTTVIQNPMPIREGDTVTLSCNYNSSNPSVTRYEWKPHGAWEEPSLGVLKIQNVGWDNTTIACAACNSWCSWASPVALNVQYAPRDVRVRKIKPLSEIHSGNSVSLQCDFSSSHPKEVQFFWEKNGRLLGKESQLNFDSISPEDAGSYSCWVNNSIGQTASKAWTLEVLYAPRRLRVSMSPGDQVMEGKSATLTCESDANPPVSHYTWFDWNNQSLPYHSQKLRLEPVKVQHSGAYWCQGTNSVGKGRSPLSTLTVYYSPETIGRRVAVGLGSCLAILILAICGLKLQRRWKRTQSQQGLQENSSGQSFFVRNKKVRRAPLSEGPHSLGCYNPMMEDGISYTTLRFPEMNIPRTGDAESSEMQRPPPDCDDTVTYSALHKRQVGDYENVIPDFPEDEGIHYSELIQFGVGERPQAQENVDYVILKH
# Results are given in words; binding and its absence hold for the method and conditions named. Some results given as binding are weak or reduced against the parent protein; the word gives no strength.
# Molecular target: CD22全长蛋白 (293细胞转染) (UniProt P20273)
# Test: flow cytometry on 293 cells transfected with full-length CD22
row,binding,Binder
1,binds,"命名为10F9的兔重组单克隆抗体 (antibody, V domains shown) VH: QSVEESGGRLVTPGTPLTLTCTVSGFSLNTDAMIWVRQAPGKGLEYIGIIGSSGSAFFASWAKGRFTISKTSTTVDLTIISPTTEDTATYFCARFTGYGGYGRGGMDPWGPGTLVTVSS VL: AQVLTQTPSSVSAAVGGTVTINCQSSESVHNNNWLSWYQQKPGQPPKLLIYKASTLASGVPSRFSGSGSGTQFTLTISGVQCDDAATYYCQATYNSGGWYVAFGGGTEVVVK"
2,binds,"命名为9A3的兔重组单克隆抗体 (antibody, V domains shown) V domain 1: QSVEESGGRLVTPGTPLTLTCTVSGIDLSSYWMNWVRQAPGKGLEWIGIIWSDDNTYYANWAKGRFTISKTSSTTVDLTITSPTTEDTATYFCARGYVGDIWGPGTLITVS V domain 2: ALVMTQTPSSVDVAVGGTVTIRCQASQNIYSGLAWYQQKPGQPPKLLIYGASNLASGVSSRFKGSGSGTQFTLTISGVECADAATYYCQQTYTSDNVDNPFGGGTEVVVE"
3,binds,"命名为8B5的兔重组单克隆抗体 (antibody, V domains shown) VH: QEQLKESGGGLVTPGGSLTLTCTVSGIDLSSYAMGWVRQAPGKGLEYIGIVTYAGSAYYASWARGRFTISKTSTTVDLKITSPTTEDTATYFCARGVDNFYTLPDAFDPWGPGTLVTVS VL: AYDMTQTPASVSAAVGGTVTINCQASQSISRFLSWYQQKPGQRPKLLIYRASTLASGVSSRFEGSGSGTQFTLTISGVECADAATYYCQQGDTYINVDNPFGGGTEVVVK"
